From patent publication US20230095569A1
Results are given in words; binding and its absence hold for the method and conditions named. Some results given as binding are weak or reduced against the parent protein; the word gives no strength.

Amino acid sequences for entries named in this document (tags omitted). A change or cut given only in a name is not applied to a line headed by its entry.
UniProt P56856: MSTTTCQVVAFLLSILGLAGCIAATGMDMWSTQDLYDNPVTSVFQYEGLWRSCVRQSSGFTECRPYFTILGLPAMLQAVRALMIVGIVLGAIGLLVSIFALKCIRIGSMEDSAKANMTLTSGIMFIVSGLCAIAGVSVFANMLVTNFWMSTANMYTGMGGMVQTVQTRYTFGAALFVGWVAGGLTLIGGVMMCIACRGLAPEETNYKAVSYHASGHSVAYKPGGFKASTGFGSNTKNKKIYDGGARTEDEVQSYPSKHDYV

B1: Ab08 (antibody, V domains shown)
VH: QVQLQQPGAELVKPGASVKLSCKASGYTFTSYLLHWVKQRPGQGLEWIGMIHPNGGSTNYNEKFKTKATLTVDKSSSTAYMQLSSLTSEDSAVYYCAPVYFGNSFAYWGQGTLVTVSA
VL: DIVMTQSPSSLTVTAGEKVTMSCKSSQSLLNSGNQKNYLTWYQQKPGQPPKLLIYWASTRESGVPDRFTGSGSGTDFTLTISSVQAEDLAVYYCQNDYYYPFTFGSGTKLEKK
B2: Ab28 (antibody, V domains shown)
VH: QVQLKESGPGLVAPSQSLSITCTVSGFSLTSHGVHWVRQPPGKGLEWLGVIWAGGSINFNSALMSRLSISKDNSKNQVFLKMNSLQSDDTAMYYCARDYYYGIGLDYWGQGTTLTVS
VL: DIVMTQSPSSLSVSAGEKVTMSCKSSQSLLNSGNQKNYLAWYQQKPGQPPKLLIYGASTRESGVPDRFTGSGSGTDFTLTISSVQAEDLAVYYCQNDYYYPFTFGSGTKLEIK
B3: Ab14 (antibody, V domains shown)
VH: QVQLQQPGAELVKPGASVKLSCKASGYTFTSYLLHWVKQRPGQGLEWIGMIHPNGGSTNYNEKFKTKATLTVDKSSSTAYMQLSSLTSEDSAVYYCAPVYFGNSFAYWGQGTLVTVSA
VL: DIVMTQSPSSLTVTAGEKVTMSCKSSQSLLNSGNQKNYLTWYQQKPGQPPKLLIYWASTRESGVPDRFTGSGSGTDFTLTISSVQAEDLAVYYCQNDYYYPFTFGSGTKLEKK
B4: Ab32 (antibody, V domains shown)
VH: QVQLKESGPGLVAPSQSLSITCTVSGFSLTSHGVHWVRQPPGKGLEWLGVIWAGGSINFNSALMSRLSISKDNSKNQVFLKMNSLQSDDTAMYYCARDYYYGIGLDYWGQGTTLTVS
VL: DIVMTQSPSSLSVSAGEKVTMSCKSSQSLLNSGNQKNYLAWYQQKPGQPPKLLIYGASTRESGVPDRFTGSGSGTDFTLTISSVQAEDLAVYYCQNDYYYPFTFGSGTKLEIK

Molecular target: human Claudin18.2 (CLDN18.2) (human) (UniProt P56856)
Experiment: FACS on CHOK1-18.2 cells

binding, binds:
B1
B2
B3
B4
